These results are taken from PubChem BioAssay AID977622 (Broad Institute, 2014).

The other results are listed elsewhere or left out. Further columns of the screen follow, without active or inactive calls.

Experiment [1] in a line: wild-type E. coli growth inhibition versus h38 humanized strain – h38 mutant RFP, wild-type GFP, cherry-pick, dose response (AID 977622). To be noted: E. coli mixed culture, 24 h, total growth OD600 at 50 uM.
The test system of experiment [2] is E. coli h38 humanized mutant ribosome RFP fluorescence, mixed culture, 24 h. Described as above. To be noted: h38 mutant RFP at 50 uM.

Turning to `Cc1ccc(NC(=O)C2CCN(S(=O)(=O)c3ccc4c(c3)NC(=O)CO4)CC2)cc1`, the activity change in experiment [1] was -22%. Still for that read-out and setting: the value for `CN(C)C(=O)c1ccc(NC(=O)CSc2nc3ccccc3[nH]2)cc1` was -34.5%. As for `O=C1c2ccccc2C(c2nnnn2Cc2ccccc2)N1Cc1cccc(F)c1` (stereo not given), the activity change in experiment [1] was 5.71%; in experiment [2], 22.1%. The matching figures for `O=C(Nc1ccc(Nc2ccccc2)cc1)c1c(Cl)cccc1Cl`: -65.8% and -1.62%. Turning to `O=C(Nc1cccc(Cl)c1)N1C[C@@H]2[C@H](c3ccccc31)[C@H](CO)N2C(=O)c1cccnc1`, the activity change in experiment [1] was -46%; in experiment [2] it was 8.17%.

Consider `Cc1cccc(CN2C(=O)c3ccccc3Sc3ccc(C(=O)NCCN4CCOCC4)cc32)c1`, for which the figures for the activity change in experiment [1] and in experiment [2] were -20.5% and -3.03%, respectively. Consider `CC(=O)Nc1cccc(-c2ccnc3c2CC(C(=O)Nc2ccc4c(c2)OCO4)O3)c1` (stereo not given), for which the figures for the activity change in experiment [1] and in experiment [2] were -48% and -2.42%, respectively. Take `C[C@@H]1CCCCO[C@@H](CN(C)C)[C@@H](C)CN([C@H](C)CO)C(=O)c2cc(NC(=O)Nc3cccc4ccccc34)ccc2O1`: the activity change in experiment [1] was -5.44%; in experiment [2] it was 12.7%. With `Cc1cc(C)cc(NC(=O)c2cccc(NC(=O)C3C4CC5OC(=O)C3C5C4)c2)c1` (stereo not given), the activity change in experiment [1] is -36%; in experiment [2], 3.12%.

Turning to `Cc1ccc(NC(=O)C[n+]2cc(-c3ccccc3)n3c2CCC3)c(C)c1`, the activity change was -6.83% in experiment [1] and -10.4% in experiment [2]. The matching figures for `C[C@@H]1CN([C@@H](C)CO)C(=O)c2cc(NS(=O)(=O)c3ccccc3)ccc2O[C@@H]1CN(C)Cc1ccc(C(=O)Nc2ccccc2N)cc1`: -38% and -13.4%. In the case of `O=S(=O)(NCc1ccc2c(c1)OCO2)c1ccc2c(c1)oc1ccccc12`, the activity change in experiment [1] is -59.8%; in experiment [2], -31.7%. The matching figures for `O=[N+]([O-])c1cccnc1N1CCN(c2ccccc2F)CC1`: -64.6% and 39.5%.

As for `O=C(O)c1cc([N+](=O)[O-])ccc1NCCc1ccccc1`, the activity change in experiment [1] is -70.5%; in experiment [2], 0.667%. The matching figures for `COc1ccc(Cn2c(-c3ccc(Br)cc3)c[n+]3ccccc23)cc1`: -35.9% and 43.7%. The matching figures for `S=C1SCN(Cc2cccnc2)CN1Cc1ccccc1`: -27.8% and 8.74%.

`O=C(O)c1cc(-c2cccs2)nn1-c1cccc(Cl)c1`: the activity change was -42.3% in experiment [1] and -22% in experiment [2]. The matching figures for `COc1cccc(S(=O)(=O)N2CCCCN3[C@H](CO)[C@@H](c4ccc(C#CC(C)C)cc4)[C@@H]3C2)c1`: -15.9% and 14.2%.

With `Cn1cnc(CCNC(=O)C[C@H]2CC[C@@H]3[C@H](COC[C@H](O)CN3C(=O)Nc3ccc(Cl)cc3)O2)c1`, the activity change in experiment [1] is -9.09%; in experiment [2], 15.2%.

With `COc1cc2c(cc1OC)C1(C)N(CC2)C(C(C)=O)=NN1c1ccc(Cl)cc1` (stereo not given), the activity change in experiment [1] is -10.1%; in experiment [2] it was -0.026%. Regarding `c1ccc(-c2nc3c4ccccc4ccn3c2CN2CCOCC2)cc1`, the activity change in experiment [1] was -31.3%. For `NC(=O)c1ccsc1NC(=O)COC(=O)CSc1ccc(Cl)cc1`, the activity change is -39.1% in experiment [1] and -11% in experiment [2]. For the molecule `O=C(Nc1cccnc1)c1ccc([N+](=O)[O-])o1`, in experiment [1], the activity change was -7.47%. Turning to `CCCOC(=O)c1ccc(NC(=O)c2nc3nc(C)cc(C)n3n2)cc1`, the activity change in experiment [1] is -3.07%; in experiment [2], -9.63%. The matching figures for `CCCCNC(=O)C[C@@H]1C[C@@]2(C(=O)OC)CCCCC=C2N(Cc2ccccc2)C1=O`: -21.1% and -6.6%. The corresponding values for `Cc1cc(Br)cn2c(Cc3cccc(Cl)c3)c(-c3ccco3)nc12` are 1.55% and 7.29%. The corresponding values for `Cc1cccc(C)c1NC(=O)C1(C)CSCC(=O)N1CCOc1ccccc1` (stereo not given) are -26.2% and -27%. Take `COc1ccc(C2CC(=O)CCN2S(=O)(=O)c2ccc(C)cc2)cc1` (stereo not given): the activity change in experiment [1] was -29.6%; in experiment [2], -14.5%. Consider `CN(C)C(CNc1ncnc2sc3c(c12)CCCCC3)c1ccco1` (stereo not given), for which the activity change in experiment [1] is -45.8%; in experiment [2], -27.3%. The corresponding values for `COc1ccccc1-c1noc2ncnc(Nc3cccc(C)c3C)c12` are -5.35% and 25.3%.

In the case of `COc1ccc(CCNc2nc(-c3ccncc3)cs2)cc1OC`, the activity change in experiment [1] was -41.6%. Turning to `CCn1cc(Cl)c(C(=O)Nc2cccc(C(F)(F)F)c2)n1`, the figures for the activity change in experiment [1] and in experiment [2] were -8.19% and -14.2%, respectively. The corresponding values for `O=C(Nc1cccc(F)c1)N1[C@@H]2CNC[C@H]1C2c1ccc(-c2ccncc2)cc1` (stereo not given in full) are 0.755% and 17.2%. The matching figures for `Cc1ccc(NC(=O)c2ccc(Br)o2)cc1S(=O)(=O)N(C)C`: -28.9% and -22.5%. On to `O=C1c2ccccc2C(c2nnnn2C2CCCCC2)N1CCc1ccc(O)cc1` (stereo not given), for which the activity change is -11% in experiment [1] and -8.19% in experiment [2]. The matching figures for `CCOC(=O)c1ccc(NC(=O)c2ccc(OC(C)C)c(OC)c2)cc1`: -23.9% and -3.87%. The corresponding values for `Cn1c(=O)c2c(ncn2CC(O)CNc2ccc(F)cc2)n(C)c1=O` (stereo not given) are 0.765% and 2.96%.

For `CCOC(=O)c1cccc(OS(=O)(=O)Cc2ccccc2)c1`, the activity change in experiment [1] is -31.9%; in experiment [2], -6.5%. The corresponding values for `CCOC(=O)c1sc2nc(NC(=O)C(C)(C)C)sc2c1C` are -95.8% and -54.7%. Turning to `O=C(c1cccs1)c1sccc1Cc1ccccc1`, the activity change was -50.4% in experiment [1] and 3.21% in experiment [2]. The matching figures for `CC(=O)N1CCOc2ccc(S(=O)(=O)N(C)c3ccc(C)cc3)cc21`: -13.2% and -21.5%. The matching figures for `Cc1cccc(S(=O)(=O)N2CCCCN3[C@@H](CO)[C@H](c4ccc(C#CC(C)C)cc4)[C@@H]3C2)c1`: -84.9% and 145%.

`Cc1cc2nc(-c3ccc4c(c3)CCC4)ccn2n1`: in experiment [1], the activity change was -25.9%.
